Data from article PMC10748395.

Target: T1, endogenous MACC1 of SW620 cells (human (endogenous in SW620)) (UniProt Q6ZN28)
T1 sequence: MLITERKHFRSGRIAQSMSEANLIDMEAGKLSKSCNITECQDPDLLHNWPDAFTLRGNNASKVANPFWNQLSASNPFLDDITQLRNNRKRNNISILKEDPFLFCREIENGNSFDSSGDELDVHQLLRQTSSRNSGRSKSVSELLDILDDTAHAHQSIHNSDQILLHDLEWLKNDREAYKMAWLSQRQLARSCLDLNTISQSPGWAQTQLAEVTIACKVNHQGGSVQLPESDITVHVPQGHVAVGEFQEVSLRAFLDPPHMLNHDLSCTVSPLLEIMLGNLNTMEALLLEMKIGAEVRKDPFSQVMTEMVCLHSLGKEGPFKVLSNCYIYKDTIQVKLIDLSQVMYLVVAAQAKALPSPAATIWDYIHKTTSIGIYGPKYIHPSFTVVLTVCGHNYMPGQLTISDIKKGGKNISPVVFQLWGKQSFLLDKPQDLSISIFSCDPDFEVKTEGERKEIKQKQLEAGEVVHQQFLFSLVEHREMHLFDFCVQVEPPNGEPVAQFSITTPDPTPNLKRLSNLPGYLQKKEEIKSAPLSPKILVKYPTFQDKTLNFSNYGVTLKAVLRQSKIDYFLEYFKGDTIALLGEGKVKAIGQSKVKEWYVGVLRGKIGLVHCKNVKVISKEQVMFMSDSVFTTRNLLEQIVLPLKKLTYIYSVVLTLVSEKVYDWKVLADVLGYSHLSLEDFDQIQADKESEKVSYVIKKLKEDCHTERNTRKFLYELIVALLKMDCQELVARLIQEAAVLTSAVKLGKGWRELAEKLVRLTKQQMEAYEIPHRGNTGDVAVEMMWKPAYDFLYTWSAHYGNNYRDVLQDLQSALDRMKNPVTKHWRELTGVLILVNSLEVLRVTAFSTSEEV
Assay: affinity purification with mass spectrometry; two independent immunoprecipitations of endogenous MACC1 from SW620 cells with two different MACC1 antibodies, eluates to shot-gun quantitative mass spectrometry (cLC-ESI-MS)

binding: binds
B1: GIPC1 in colorectal cancer cell lysates (SW620, SW480) (protein, UniProt O14908 1-333)
chain: MPLGLGRRKKAPPLVENEEAEPGRGGLGVGEPGPLGGGGSGGPQMGLPPPPPALRPRLVFHTQLAHGSPTGRIEGFTNVKELYGKIAEAFRLPTAEVMFCTLNTHKVDMDKLLGGQIGLEDFIFAHVKGQRKEVEVFKSEDALGLTITDNGAGYAFIKRIKEGSVIDHIHLISVGDMIEAINGQSLLGCRHYEVARLLKELPRGRTFTLKLTEPRKAFDMISQRSAGGRPGSGPQLGTGRGTLRLRSRGPATVEDLPSAFEEKAIEKVDDLLESYMGIRDTELAATMVELGKDKRNPDELAEALDERLGDFAFPDEFVFDVWGAIGDAKVGRY

These are yes or no findings as the source states them, for the method shown. Binding seen in cells or lysates may run through a third protein. Here binding means that the protein was enriched with, or labelled near, the bait; the list need not be complete.
